# Measurements taken from PMC2361662 (British Journal of Cancer, 2005).
# Tested on: PLC-γ, AKT, ERK, STAT3
# Experiment: cells
# Details: read-out: Average IC50 of signalling molecule phosphorylation site inhibition
# Description: For determination of phosphorylated proteins, 5 μg whole cell lysate from serum-starved cells was resolved by SDS–PAGE and electroblotted onto nitrocellulose membranes. After transfer and blocking in 5% nonfat milk, primary antibody staining was carried out by incubation overnight at 4°C, and secondary antibody staining was for 1 h at room temperature. The chemiluminescence detection method (ECL) was used for all Western blot experiments.
# Extracellular regulated kinase-1 and -2 (ERK-2), phospholipase C γ (PLC-γ), protein kinase B (AKT) and the signal transducer and activator of transcription 3 (STAT3) are all essential downstream targets of EGFR and mediate many of its oncogenic effects.
# Figure 3 (A) Phosphorylation of key signalling molecules upon EGF (10 nM for 10 min) stimulation in the four cell lines.
smiles,measurement,value
COc1cc2ncnc(Nc3ccc(F)c(Cl)c3)c2cc1OCCCN1CCOCC1 [gefitinib],IC50,0.011 µM
